In US20150212086A1:
Results are given in words; binding and its absence hold for the method and conditions named. Some results given as binding are weak or reduced against the parent protein; the word gives no strength.

Sequences of proteins named here, by UniProt entry; tags and fusion partners are left off.
UniProt P11404: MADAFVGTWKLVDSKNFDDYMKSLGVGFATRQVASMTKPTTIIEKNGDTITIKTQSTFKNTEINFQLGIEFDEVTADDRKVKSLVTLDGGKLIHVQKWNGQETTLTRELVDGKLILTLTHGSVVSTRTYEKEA

Experiments:
[1] = molecular target: MDGI prey cDNAs from the murine embryonic (E12.5) cDNA library (yeast-two-hybrid hits) (mouse) (UniProt P11404); assay: yeast-two-hybrid screen, CooP bait against a murine embryonic E12.5 cDNA library
[2] = molecular target: MDGI prey cDNAs from the murine embryonic (E12.5) cDNA library (yeast-two-hybrid hits) (mouse) (UniProt P11404); assay: yeast-two-hybrid screen

B1: CooP peptide sequence as bait in the pGBKT7 vector (yeast-two-hybrid) (peptide, not shown: large carriers)
chain: CGLSGLGVA
binding [1]: binds | binding [2]: binds
